In patent US20070197389A1 (priority 2004, published 2007):
Some of these results come from one statement about several compounds together.

Key:
Alternaria solani = test: Activity against early blight caused by Alternaria solani on tomato plants; type: in vivo; details: 250 ppm active compound, tomato plants cultivar Goldene Prinzessin, sprayed 1 day before infection, assessed after 5 days; untreated plants 80% infected
[1] = tested on: Pyrenophora [syn. Drechslera] teres; test: Activity against net blotch of barley caused by Pyrenophora teres, 1 day protective application; type: in vivo; details: 250 ppm active compound, barley seedlings cultivar Igri, 24 h protective, infected leaf area after 6 days; untreated plants 100% infected

Which results are given for `CN(C)C=Nc1c(-c2c(F)cc(F)cc2F)c(Cl)nc2ncnn12` [Example 1, N′-[5-Chloro-6-(2,4,6-trifluorophenyl)(1,2,4-triazolo[1,5-a]pyrimidin-7-yl)]-N,N-dimethylformamidine]?
infection (Alternaria solani): less than or equal to 1%; infection [1]: ≤ 10%
